Measured values reported in paper PMC11546247.
These are yes or no findings as the source states them, for the method shown. Binding seen in cells or lysates may run through a third protein. Binding can be weak; no strength is given.

Target: glutathione peroxidase 4
Assay: co-IP; HEK-293T cells transiently transfected with indicated plasmids for 36 h; lysed in RIPA buffer with 1% PMSF; supernatant with 50 uL protein G-agarose beads and 1 ug antibody, 4 h at 4 °C; washed three times with RIPA buffer; Western blot

- binding: binds
B1: malate dehydrogenase 2 (enzyme, UniProt P40926 25-338)
chain: AKVAVLGASGGIGQPLSLLLKNSPLVSRLTLYDIAHTPGVAADLSHIETKAAVKGYLGPEQLPDCLKGCDVVVIPAGVPRKPGMTRDDLFNTNATIVATLTAACAQHCPEAMICVIANPVNSTIPITAEVFKKHGVYNPNKIFGVTTLDIVRANTFVAELKGLDPARVNVPVIGGHAGKTIIPLISQCTPKVDFPQDQLTALTGRIQEAGTEVVKAKAGAGSATLSMAYAGARFVFSLVDAMNGKEGVVECSFVKSQETECTYFSTPLLLGKKGIEKNLGIGKVSSFEEKMISDAIPELKASIKKGEDFVKTLK
